Results reported in US20240264161A1, “BIOMARKERS AND USES THEREOF” (MetaCurUm Biotech AB, priority 2021, published 2024).
Results are given in words; binding and its absence hold for the method and conditions named. Binding seen in cells or lysates may run through a third protein. Some entries that bind do so weakly or less than the wild type. For part of these data: Where a sequence is shown, tags or fusion partners need not be part of it.

Sequences of proteins named here, by UniProt entry; tags and fusion partners are left off. A change or cut given only in a name is not applied to a line headed by its entry.
UniProt Q96GD4: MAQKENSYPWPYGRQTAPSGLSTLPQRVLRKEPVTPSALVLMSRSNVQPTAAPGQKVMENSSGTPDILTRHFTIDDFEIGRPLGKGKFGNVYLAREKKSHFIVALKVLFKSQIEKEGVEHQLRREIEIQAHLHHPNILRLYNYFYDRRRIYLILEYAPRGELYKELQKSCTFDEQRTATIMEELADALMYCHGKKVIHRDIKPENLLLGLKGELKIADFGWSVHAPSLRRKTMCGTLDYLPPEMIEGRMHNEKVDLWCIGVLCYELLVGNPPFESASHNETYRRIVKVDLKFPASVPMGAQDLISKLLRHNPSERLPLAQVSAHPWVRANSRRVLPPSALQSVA

Assays:
[1] = biological target: T1, Adaptor Protein, Phosphotyrosine Interacting With PH Domain And Leucine Zipper 1 (APPL1), endogenous in PC-3U cells (human) (UniProt Q9UKG1); experiment: co-immunoprecipitation: AURKB antibody IP, APPL1 immunoblot, synchronized PC-3U lysates (FIG. 3C)
T1 sequence (looked up): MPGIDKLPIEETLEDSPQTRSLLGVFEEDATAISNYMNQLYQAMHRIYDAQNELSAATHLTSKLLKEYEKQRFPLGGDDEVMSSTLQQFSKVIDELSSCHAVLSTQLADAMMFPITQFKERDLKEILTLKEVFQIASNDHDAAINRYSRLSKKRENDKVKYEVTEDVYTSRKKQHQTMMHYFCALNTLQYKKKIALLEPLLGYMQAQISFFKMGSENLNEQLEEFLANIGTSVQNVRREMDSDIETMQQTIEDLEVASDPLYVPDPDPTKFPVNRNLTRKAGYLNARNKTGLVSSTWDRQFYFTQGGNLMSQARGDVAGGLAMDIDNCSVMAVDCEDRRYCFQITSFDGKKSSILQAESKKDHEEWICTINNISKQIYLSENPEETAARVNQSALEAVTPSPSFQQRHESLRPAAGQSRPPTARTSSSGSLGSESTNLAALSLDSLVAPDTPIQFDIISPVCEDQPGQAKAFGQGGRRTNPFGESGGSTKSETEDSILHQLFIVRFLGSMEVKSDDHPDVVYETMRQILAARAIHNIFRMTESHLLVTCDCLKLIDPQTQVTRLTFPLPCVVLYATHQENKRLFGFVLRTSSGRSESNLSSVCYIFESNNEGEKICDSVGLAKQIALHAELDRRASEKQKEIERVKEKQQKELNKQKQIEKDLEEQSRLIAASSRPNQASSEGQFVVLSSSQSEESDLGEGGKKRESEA

[2] = biological target: T1, Adaptor Protein, Phosphotyrosine Interacting With PH Domain And Leucine Zipper 1 (APPL1), endogenous in PC-3U cells (human); experiment: co-immunoprecipitation, PC-3U lysates (FIG. 3C)
[3] = biological target: T2, GFP-APPL1 BAR domain (human) (UniProt Q9UKG1); experiment: co-immunoprecipitation: HA IP, GFP immunoblot (FIG. 1O)
T2 sequence (looked up): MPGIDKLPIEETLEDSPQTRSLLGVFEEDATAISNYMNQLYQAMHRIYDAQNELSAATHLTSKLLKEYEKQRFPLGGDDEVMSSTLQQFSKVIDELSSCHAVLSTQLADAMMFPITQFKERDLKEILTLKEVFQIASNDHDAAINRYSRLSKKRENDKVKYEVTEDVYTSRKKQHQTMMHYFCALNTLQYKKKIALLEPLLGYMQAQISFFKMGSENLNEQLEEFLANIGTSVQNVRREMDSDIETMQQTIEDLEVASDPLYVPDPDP

[4] = biological target: T3, GFP-APPL1 PH domain (human) (UniProt Q9UKG1); experiment: as above
T3 sequence (looked up): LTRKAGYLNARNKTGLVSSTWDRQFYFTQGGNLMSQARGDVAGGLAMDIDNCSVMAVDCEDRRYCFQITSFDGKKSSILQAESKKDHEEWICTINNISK

[5] = biological target: T4, GFP-APPL1 PTB domain (human) (UniProt Q9UKG1); experiment: as above
T4 sequence (looked up): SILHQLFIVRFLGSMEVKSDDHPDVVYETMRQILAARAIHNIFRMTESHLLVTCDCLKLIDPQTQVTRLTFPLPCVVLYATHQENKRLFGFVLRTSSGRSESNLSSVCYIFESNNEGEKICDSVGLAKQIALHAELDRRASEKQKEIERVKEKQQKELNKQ

[6] = biological target: T2, GFP-APPL1 BAR domain (human); experiment: co-immunoprecipitation: HA IP, GFP immunoblot, synchronized PC-3U cells (FIG. 1O)
[7] = biological target: T3, GFP-APPL1 PH domain (human); experiment: as above
[8] = biological target: T4, GFP-APPL1 PTB domain (human); experiment: as above
[9] = biological target: Aurora kinase B (AURKB), endogenous, in PC-3U cell lysates / human tissue sections (human) (UniProt Q96GD4); experiment: confocal co-localisation and co-immunoprecipitation in PC-3U cells

Measured: binding

Aurora kinase B (AURKB), endogenous, in PC-3U cell lysates / human tissue sections (from UniProt Q96GD4 1-344) (enzyme)
binds: [1] | [2]

HA-AURKB (from UniProt Q96GD4 1-344) (enzyme)
not listed: [1] | [2] | [9]
binds: all other assays above

B1: Adaptor Protein, Phosphotyrosine Interacting With PH Domain And Leucine Zipper 1 (APPL1), endogenous in PC-3U cells (protein, human, UniProt Q9UKG1 1-709, looked up)
chain: T1 sequence (looked up)
binds: [9]
